From patent US20080194456A1, “Compositions And Methods Related To An Intestinal Inflammation And Uses Therefor” (The General Hospital Corporation, priority 2004, published 2008)
At least one structure is not confirmed: it was looked up by name or label, or the drawing left a doubt.

Tested on: S. typhimurium
Conditions: Caco-2 cells stimulated with RA, IFN-α or both; two hour incubation

Compound: CC1=C(/C=C/C(C)=C/C=C/C(C)=C/C(=O)O)C(C)(C)CCC1 [RA, retinoic acid, reference compound]
- percentage of intracellular bacteria / invasive ability of S. typhimurium: remained the same
